Reference: patent US20210079070A1
These are yes or no findings as the source states them, for the method shown. For part of these data: A result given as binding can be weak or reduced; the word gives no strength.

Assays:
[1] = molecular target: BG505 SOSIP.664 Env ectodomain trimer (HIV-1); experiment: ELISA, BG505 SOSIP.664 coated on the plate, HRP anti-human IgG, OD 450
[2] = molecular target: HIV-1 Env CD4BS2 mutant K207E (HIV-1); experiment: binding to Env mutants (FIG. 6A)
[3] = molecular target: HIV-1 Env CD4BS2 mutant K207E (HIV-1); experiment: ELISA, panel 'N6 70-03 Binding to BG505 SOSIP.664', HIV-1 Env mutation: K207E
[4] = molecular target: BG505 SOSIP.664 Env ectodomain trimer (HIV-1); experiment: ELISA, BG505 SOSIP.664 coated at 2 µg/ml

B1: VRC03 (antibody, V domains shown)
VH: QVQLVQSGAVIKTPGSSVKISCRASGYNFRDYSIHWVRLIPDKGFEWIGWIKPLWGAVSYARQLQGRVSMTRQLSQDPDDPDWGVAYMEFSGLTSADTAEYFCVRRGSCDYCGDFPWQYWGQGTWVVSSA
VL: EIVLTQSPGILSLSPGETATLFCKASQGGNAMTWYQKRRGQVPRLLIYDTSRRASGVPDRFVGSGSGTDFFLTINKLDREDFAVYYCQQFEFFGLGSELEVH
B1 was tested. Which binding [1] did it give?
Its binding is “binds”.

B2: VRC06 (antibody, V domains shown)
VH: EVQLVESGPVMRKPGSSMKISCATSGYNFRDFSIHWVRFNRRYGFEWIGWIKPMWGAVNYARQLQGRVSMSRLFSQDLYYPDRGTAYLEFSGLTSADTADYFCVRRGSSCPHCGDFHFEHWGQGTAVVVSA
VL: EIVLTQSPATLSLSPGERATLSCRASQGGNSLNWYQKRRGQTPRLLIYDTSRRASDIPEKFVGSGSGTDFSLTITKVGPEDFAVYYCQQFEFFGLGTTLEIN
For B2, which binding [1] is on record?
Its binding is “binds”.

B3: N6 70-03 (antibody, V domains shown)
VH: RAHLVQSGTAMKKPGASVRVSCQTSGYTFTAHILFWFRQAPGRGLEWVGWIKPQYGAVNFGGGFRDRVTLTRQLSQDPDDPDWGIAYMDIRGLKPDDTAVYYCARDRSYGDSSWALDAWGQGTTVVVSA
VL: YIHVTQSPSSLSVSIGDRVTINCQTSQGVGSDLHWYQHKPGRAPKLLIHHTSSVEDGVPSRFSGSGFHTSFNLTISDLQADDIATYYCQVLQFFGRGSRLHIK
What does the source list for B3?
binding [2]: binds; binding [3]: binds

B4: VRC03del (antibody, V domains shown)
VH: QVQLVQSGAVIKTPGSSVKISCRASGYNFRDYSIHWVRLIPDKGFEWIGWIKPLWGAVSYARQLQGRVSMTRQLGPGWGVAYMEFSGLTSADTAEYFCVRRGSCDYCGDFPWQYWGQGTWVVSSA
VL: B1 VL
Which results are given for B4?
binding [4]: no binding; binding [1]: no binding (tested: about 20 µg/ml)
